Laboratory results published in paper PMC10646096.
Results are given in words; binding and its absence hold for the method and conditions named. In cells and extracts the contact can be indirect. A yes stands for co-enrichment or nearness to the bait. Other partners may have been found. For part of these data: No binding means not detected with the bait. Values belong to the substance of their own block, whether it stands above or below them.

Chains of the proteins cited; added tags and fusions are not shown. Residues count along the entry.
UniProt P51668: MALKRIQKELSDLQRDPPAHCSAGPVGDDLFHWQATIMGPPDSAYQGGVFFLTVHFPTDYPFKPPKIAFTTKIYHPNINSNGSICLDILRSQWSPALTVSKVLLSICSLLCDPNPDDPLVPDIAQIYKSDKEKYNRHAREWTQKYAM
UniProt P63279: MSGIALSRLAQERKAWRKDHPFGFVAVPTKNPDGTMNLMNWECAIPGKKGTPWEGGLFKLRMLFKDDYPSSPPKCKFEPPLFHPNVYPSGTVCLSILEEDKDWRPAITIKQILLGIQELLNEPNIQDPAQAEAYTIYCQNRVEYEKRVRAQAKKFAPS
UniProt P22314: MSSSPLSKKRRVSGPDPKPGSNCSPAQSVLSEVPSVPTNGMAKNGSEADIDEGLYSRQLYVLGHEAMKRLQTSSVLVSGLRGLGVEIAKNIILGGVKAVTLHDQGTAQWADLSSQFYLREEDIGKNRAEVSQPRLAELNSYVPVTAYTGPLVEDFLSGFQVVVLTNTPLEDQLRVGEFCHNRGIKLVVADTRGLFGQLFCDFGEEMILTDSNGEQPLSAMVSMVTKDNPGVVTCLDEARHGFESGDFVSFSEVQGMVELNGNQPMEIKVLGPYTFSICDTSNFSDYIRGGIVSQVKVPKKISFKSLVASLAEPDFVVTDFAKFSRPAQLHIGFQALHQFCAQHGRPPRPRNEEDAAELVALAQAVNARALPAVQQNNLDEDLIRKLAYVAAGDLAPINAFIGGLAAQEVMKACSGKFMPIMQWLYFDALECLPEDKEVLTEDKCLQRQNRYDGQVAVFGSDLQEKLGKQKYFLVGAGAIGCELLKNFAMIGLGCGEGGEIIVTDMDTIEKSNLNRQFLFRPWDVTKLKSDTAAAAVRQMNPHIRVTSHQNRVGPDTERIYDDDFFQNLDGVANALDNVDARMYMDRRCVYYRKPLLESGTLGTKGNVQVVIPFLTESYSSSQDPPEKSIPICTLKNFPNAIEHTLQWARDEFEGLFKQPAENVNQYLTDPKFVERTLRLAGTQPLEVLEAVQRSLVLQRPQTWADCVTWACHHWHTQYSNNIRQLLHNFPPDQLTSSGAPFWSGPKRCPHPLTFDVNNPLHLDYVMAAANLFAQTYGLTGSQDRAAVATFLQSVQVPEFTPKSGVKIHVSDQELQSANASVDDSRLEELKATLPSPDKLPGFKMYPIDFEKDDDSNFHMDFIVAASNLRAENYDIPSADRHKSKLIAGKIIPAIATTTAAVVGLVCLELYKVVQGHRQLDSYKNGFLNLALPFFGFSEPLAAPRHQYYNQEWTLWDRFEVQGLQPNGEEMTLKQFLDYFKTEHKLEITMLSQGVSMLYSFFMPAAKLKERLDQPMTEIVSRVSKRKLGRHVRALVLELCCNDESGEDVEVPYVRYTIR
UniProt Q9GZZ9: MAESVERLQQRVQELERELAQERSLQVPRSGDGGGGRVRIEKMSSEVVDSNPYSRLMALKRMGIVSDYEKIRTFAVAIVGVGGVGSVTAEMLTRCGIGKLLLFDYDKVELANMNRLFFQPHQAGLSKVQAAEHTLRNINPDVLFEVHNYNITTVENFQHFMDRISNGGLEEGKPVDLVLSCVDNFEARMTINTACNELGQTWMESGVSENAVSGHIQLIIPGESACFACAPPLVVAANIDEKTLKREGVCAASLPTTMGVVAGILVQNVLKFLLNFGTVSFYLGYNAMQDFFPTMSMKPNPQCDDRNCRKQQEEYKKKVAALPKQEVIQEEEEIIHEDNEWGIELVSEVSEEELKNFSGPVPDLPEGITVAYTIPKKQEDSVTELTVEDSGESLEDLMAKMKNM
UniProt P55854, residues 1-92: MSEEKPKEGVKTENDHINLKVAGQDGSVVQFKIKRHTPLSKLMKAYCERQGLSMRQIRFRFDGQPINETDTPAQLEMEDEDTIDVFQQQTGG
UniProt Q16763: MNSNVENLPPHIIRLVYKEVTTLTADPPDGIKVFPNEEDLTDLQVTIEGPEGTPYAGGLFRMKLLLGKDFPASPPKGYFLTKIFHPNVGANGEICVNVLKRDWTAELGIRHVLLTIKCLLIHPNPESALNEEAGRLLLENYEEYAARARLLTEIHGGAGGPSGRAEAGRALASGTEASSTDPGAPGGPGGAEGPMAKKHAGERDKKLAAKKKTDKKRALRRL
UniProt Q15819: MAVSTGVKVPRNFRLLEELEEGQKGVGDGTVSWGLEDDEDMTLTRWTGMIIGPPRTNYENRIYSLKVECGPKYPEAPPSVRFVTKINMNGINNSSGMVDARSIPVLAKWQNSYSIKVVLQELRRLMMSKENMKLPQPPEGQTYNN
UniProt Q9ULT8: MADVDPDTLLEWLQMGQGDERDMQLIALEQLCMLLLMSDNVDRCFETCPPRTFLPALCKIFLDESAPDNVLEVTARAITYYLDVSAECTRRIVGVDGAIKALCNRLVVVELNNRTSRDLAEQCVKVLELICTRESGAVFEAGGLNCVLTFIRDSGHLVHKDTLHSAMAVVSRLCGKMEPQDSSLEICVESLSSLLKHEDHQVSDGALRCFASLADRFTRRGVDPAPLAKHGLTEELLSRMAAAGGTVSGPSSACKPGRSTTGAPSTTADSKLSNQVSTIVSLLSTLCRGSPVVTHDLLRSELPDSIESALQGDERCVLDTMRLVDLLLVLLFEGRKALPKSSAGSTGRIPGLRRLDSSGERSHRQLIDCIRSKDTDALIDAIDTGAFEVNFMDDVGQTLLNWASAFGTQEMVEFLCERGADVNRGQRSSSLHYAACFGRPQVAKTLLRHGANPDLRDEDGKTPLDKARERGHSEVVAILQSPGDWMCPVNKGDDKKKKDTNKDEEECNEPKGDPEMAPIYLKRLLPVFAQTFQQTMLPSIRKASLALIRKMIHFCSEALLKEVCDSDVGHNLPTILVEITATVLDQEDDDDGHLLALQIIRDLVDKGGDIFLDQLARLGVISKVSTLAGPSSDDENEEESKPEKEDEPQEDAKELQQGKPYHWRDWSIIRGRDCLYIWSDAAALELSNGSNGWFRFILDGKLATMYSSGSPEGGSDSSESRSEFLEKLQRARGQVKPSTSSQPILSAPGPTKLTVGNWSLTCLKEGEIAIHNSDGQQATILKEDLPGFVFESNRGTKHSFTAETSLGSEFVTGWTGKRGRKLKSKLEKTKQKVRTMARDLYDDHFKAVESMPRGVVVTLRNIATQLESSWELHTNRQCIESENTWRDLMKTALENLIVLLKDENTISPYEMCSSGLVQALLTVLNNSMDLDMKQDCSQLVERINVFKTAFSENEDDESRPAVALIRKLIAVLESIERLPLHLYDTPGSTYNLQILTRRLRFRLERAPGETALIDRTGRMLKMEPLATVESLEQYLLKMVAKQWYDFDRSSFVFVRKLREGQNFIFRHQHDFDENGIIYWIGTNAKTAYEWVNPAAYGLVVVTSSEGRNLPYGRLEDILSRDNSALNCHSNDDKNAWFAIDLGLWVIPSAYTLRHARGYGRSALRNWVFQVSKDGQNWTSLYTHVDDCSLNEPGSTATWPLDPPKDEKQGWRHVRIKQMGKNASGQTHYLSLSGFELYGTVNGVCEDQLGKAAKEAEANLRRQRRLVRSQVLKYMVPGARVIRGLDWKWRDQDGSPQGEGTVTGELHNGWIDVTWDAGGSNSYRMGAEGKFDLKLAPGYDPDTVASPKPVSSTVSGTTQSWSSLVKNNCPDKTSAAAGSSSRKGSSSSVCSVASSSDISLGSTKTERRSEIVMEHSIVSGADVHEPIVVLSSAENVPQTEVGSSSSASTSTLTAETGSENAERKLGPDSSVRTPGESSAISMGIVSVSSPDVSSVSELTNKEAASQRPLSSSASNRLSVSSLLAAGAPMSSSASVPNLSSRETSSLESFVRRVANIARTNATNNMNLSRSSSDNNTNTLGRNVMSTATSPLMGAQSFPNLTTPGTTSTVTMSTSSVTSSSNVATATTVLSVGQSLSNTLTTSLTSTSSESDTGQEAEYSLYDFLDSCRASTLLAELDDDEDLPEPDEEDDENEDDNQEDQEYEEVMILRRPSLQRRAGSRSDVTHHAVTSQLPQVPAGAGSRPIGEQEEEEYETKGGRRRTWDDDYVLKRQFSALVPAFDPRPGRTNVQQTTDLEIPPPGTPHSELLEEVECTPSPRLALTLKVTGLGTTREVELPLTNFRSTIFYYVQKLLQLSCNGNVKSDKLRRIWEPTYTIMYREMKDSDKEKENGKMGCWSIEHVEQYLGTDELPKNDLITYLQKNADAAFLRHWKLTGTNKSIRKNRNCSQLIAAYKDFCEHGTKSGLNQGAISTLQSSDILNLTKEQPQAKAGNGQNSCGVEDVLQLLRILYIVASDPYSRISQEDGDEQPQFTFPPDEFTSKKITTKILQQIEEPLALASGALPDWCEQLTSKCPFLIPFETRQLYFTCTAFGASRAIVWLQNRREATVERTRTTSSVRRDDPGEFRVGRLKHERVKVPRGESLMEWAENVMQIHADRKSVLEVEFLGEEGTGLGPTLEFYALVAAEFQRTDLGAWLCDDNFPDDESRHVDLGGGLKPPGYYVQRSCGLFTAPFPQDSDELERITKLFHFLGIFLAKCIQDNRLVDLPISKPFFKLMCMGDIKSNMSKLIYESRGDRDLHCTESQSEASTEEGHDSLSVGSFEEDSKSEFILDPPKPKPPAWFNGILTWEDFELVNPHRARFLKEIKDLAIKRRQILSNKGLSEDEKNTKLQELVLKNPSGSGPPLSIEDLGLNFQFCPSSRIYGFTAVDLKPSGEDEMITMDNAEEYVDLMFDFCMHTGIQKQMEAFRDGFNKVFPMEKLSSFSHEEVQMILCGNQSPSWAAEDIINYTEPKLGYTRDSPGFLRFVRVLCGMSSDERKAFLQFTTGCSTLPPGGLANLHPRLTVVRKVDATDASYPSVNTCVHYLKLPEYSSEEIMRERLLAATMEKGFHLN
UniProt Q96LR5: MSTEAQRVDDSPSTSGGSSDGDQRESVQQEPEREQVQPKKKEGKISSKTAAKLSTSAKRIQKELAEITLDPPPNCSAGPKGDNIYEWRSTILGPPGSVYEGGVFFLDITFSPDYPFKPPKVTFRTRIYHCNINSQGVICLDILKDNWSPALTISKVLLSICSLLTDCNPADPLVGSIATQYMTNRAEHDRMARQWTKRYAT
UniProt O14933: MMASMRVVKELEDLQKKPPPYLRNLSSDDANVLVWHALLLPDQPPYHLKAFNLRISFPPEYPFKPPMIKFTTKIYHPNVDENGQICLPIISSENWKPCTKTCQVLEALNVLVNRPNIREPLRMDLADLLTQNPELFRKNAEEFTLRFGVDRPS
UniProt P49427: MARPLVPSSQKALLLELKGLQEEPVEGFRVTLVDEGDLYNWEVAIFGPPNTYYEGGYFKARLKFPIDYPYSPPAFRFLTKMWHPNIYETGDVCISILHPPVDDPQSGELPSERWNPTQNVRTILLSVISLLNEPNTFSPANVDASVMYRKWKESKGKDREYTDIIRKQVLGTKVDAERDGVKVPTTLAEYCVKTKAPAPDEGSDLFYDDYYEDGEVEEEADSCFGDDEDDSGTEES

Key:
Test in all cases: affinity purification with mass spectrometry; C-terminally FLAG-tagged E1/E2 baits transfected in HEK293T; NP40 lysate, FLAG affinity resin at 4 °C overnight, eluted with FLAG peptide; spectral counting, SAINT >= 0.65 against no-FLAG controls; 3 replicates a bait, 10 controls
UBE2D1 (human) = UBE2D1 (human) (UniProt P51668)
UBE2I (human) = UBE2I (human) (UniProt P63279)
UBE2M (human) = UBE2M (human) (UniProt P61081)
UBA1 (human) = UBA1 (human) (UniProt P22314)
ATG7 (human) = target: T1, ATG7 (human) (UniProt O95352)
T1 sequence: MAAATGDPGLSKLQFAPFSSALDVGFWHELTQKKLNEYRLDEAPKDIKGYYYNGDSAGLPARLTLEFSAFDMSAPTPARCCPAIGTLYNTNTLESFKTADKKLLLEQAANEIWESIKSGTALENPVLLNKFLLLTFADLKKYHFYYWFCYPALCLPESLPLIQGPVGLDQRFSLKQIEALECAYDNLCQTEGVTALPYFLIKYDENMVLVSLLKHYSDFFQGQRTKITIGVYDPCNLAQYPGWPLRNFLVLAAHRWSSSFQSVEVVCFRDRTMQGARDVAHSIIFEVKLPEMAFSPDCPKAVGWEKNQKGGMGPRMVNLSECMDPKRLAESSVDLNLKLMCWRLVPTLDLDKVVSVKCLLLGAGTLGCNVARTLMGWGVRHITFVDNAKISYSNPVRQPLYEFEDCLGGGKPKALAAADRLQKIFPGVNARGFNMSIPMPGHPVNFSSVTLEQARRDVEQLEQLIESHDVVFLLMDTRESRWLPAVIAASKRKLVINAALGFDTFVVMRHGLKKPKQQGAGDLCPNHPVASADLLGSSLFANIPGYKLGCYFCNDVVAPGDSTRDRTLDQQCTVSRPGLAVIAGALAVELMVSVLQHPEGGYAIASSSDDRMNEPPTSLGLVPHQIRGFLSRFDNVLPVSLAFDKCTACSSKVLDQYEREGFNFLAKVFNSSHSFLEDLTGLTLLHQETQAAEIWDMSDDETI

NAE1 (human) = target: T2, NAE1 (human) (UniProt Q13564)
T2 sequence: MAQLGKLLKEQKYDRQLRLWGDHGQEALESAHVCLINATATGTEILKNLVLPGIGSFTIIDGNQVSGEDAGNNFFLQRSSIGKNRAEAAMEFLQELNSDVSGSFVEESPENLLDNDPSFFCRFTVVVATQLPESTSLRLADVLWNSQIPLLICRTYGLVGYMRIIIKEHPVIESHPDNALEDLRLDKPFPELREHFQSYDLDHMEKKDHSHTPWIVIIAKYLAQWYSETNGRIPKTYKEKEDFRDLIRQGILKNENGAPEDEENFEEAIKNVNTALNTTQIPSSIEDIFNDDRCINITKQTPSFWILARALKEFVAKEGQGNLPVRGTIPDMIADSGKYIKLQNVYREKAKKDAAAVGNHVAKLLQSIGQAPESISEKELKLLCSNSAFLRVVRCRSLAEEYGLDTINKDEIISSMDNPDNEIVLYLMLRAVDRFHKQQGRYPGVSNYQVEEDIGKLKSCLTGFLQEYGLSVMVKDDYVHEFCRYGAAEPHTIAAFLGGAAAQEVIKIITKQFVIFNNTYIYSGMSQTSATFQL

SAE1 (human) = target: T3, SAE1 (human) (UniProt Q9UBE0)
T3 sequence: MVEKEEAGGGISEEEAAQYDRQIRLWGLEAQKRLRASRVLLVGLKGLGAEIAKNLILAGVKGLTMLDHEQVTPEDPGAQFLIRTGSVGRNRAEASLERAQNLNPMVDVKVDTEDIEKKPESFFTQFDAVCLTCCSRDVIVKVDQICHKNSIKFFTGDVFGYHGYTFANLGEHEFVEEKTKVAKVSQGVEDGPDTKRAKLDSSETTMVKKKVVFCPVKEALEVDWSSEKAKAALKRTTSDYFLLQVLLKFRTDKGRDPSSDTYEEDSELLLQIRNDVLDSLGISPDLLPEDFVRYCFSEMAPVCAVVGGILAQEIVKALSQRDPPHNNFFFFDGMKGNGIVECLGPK

UBA2 (human) = target: T4, UBA2 (human) (UniProt Q9UBT2)
T4 sequence: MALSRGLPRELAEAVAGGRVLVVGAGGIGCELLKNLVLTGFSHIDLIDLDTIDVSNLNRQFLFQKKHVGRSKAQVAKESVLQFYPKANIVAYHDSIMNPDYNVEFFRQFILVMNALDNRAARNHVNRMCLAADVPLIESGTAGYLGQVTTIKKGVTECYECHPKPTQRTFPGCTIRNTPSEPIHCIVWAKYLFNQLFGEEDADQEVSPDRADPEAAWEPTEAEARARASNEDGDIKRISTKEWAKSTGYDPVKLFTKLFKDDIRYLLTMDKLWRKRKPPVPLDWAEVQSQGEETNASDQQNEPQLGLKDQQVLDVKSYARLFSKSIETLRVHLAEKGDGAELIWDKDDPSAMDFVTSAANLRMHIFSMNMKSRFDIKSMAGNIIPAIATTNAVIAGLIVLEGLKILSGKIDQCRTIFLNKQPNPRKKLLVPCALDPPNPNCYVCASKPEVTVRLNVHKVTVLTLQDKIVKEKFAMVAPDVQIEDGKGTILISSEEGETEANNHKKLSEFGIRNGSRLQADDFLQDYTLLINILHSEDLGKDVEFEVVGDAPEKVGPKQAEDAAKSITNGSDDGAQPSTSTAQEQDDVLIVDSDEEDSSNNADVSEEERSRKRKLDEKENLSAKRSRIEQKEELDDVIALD

UBA5 (human) = UBA5 (human) (UniProt Q9GZZ9)
UBA6 (human) = target: T5, UBA6 (human) (UniProt A0AVT1)
T5 sequence: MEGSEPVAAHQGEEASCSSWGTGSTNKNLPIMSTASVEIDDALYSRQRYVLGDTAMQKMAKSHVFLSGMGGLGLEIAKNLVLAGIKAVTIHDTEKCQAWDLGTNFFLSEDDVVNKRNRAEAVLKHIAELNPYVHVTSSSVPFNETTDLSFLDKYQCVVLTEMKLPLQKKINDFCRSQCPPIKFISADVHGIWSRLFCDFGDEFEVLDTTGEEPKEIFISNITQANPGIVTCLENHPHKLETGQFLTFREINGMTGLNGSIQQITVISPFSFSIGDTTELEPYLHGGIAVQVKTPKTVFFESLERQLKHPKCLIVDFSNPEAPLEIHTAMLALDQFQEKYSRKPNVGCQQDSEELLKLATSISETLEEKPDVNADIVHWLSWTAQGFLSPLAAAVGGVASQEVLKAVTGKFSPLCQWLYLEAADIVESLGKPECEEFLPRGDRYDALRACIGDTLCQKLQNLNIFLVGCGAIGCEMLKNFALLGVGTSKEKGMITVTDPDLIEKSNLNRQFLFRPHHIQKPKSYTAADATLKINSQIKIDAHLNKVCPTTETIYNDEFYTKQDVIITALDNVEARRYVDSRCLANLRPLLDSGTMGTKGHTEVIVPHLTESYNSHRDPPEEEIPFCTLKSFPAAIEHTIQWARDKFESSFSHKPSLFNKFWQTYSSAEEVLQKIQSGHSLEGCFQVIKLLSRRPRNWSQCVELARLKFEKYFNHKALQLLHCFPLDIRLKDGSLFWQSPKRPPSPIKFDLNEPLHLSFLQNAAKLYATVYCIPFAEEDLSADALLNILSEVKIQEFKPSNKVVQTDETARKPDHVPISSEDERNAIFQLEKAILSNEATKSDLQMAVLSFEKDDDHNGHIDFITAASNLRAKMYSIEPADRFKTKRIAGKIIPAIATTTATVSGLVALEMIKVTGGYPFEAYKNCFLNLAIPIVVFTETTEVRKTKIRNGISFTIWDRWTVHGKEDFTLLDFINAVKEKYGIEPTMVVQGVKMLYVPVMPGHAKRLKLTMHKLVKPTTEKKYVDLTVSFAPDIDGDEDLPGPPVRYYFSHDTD

- binding (UBE2D1 (human)): binds
Substance: HERC1 (from UniProt Q15751 1-4861) (enzyme)

- binding (UBE2I (human)): binds
Substance: SUMO3 (from UniProt P55854 1-92)

- binding (UBE2M (human)): binds
Substance: UBA3 (from UniProt Q8TBC4 1-463) (enzyme)

- binding (UBA1 (human)): binds
Substance: UBE2S (from UniProt Q16763 1-222) (enzyme)

- binding (ATG7 (human)): no binding
- binding (NAE1 (human)): no binding
- binding (SAE1 (human)): no binding
- binding (UBA2 (human)): no binding
- binding (UBA5 (human)): no binding
- binding (UBA6 (human)): no binding
Substance: UBE2V2 (from UniProt Q15819 1-145)

The next lines start with the substance.

Substance: HECTD1 (from UniProt Q9ULT8 1-2610) (enzyme)
- binding (UBE2D1 (human)): binds

Substance: HUWE1 (from UniProt Q7Z6Z7 1-4374) (enzyme)
- binding (UBE2D1 (human)): binds

Substance: UBE2E2 (from UniProt Q96LR5 1-201) (enzyme)
- binding (UBA1 (human)): binds

Substance: UBE2L6 (from UniProt O14933 1-153) (enzyme)
- binding (UBA1 (human)): binds

Substance: UBE2R1 (CDC34) (from UniProt P49427 1-236) (enzyme)
- binding (UBA1 (human)): binds
